Source: the supplement of paper PMC5949888
Most values lie at the floor of the assay. Slopes are relative: functional sequences can read slightly below zero.

test system: Saccharomyces cerevisiae PS128 hsf1 delta, HSF1(1-493) fusion; experiment: growth estimate (transactivation domain function in HSF1 fusion, heat-shock survival) (a.u. (slope of normalised read count over time)); higher = stronger growth at 37°C, i.e. more transactivation activity; details: library: random library

| Substance | growth estimate |
| --- | --- |
| GIAHLANQPLTPQQRARCAY | < -0.25 |
| QKYLKINSDRKERETVHVFR | < -0.25 |
| VLSVDQVTGANGPISSNCGG | < -0.25 |
| QLESTILL | < -0.25 |
| RNCPAKLKQGKATHRY | < -0.25 |
| LLSEIIIGK | < -0.25 |
| LRRW | < -0.25 |
| ISLLKRPSDGPQRYGGIAKR | < -0.25 |
| CERHRVLDIGSPAPYC | < -0.25 |
| SFASHRYRRSGVGRDNAPTR | < -0.25 |
| FQTFLNWAHSGLTSSL | < -0.25 |
| EHGHT | < -0.25 |
| ELRVFGSLRQRSGNSGSRSD | < -0.25 |
| CRVAPRGLCYPAPYQGRMIR | < -0.25 |
| ADVLPSRHSSSCPFTV | < -0.25 |
| ANYYS | < -0.25 |
| PTDTPRRPAISLGGYSATVP | < -0.25 |
| ARSHGLLFVISSVTLGLTLD | < -0.25 |
| WIRYSS | -0.21 |
| VERLHRME | < -0.25 |
| GISLAVDRLRHDESYAGSF | < -0.25 |
| YWVVASDGATTGVGVSYIRG | < -0.25 |
| CRLLPLGS | < -0.25 |
| KRIEV | < -0.25 |
| SARTKFRP | < -0.25 |

| Substance | growth estimate |
| --- | --- |
| VVRRCKALKRR | < -0.25 |
| SYLDTYWVGTNGGLSLWSIC | < -0.25 |
| NVALSGPL | < -0.25 |
| LWQCPDWIQKS | < -0.25 |
| SGSATVLGEVGSGALQSVVG | < -0.25 |
| EVVMSVPL | < -0.25 |
| WFFA | < -0.25 |
| VYGRRSRSDLVHYALFPQCL | < -0.25 |
| GFVTIRMLSQRITWLA | < -0.25 |
| TGVCV | < -0.25 |
| VWTTRINWYFARCHQIISTP | < -0.25 |
| RKERT | -0.231 |
| VIRLSDSCQMSSLDHVSI | < -0.25 |
| RPGRSRIILGTIDY | < -0.25 |
| SAIGVVVQGFAHTSVLIHPP | < -0.25 |
| RSVNNVRATSTL | < -0.25 |
| QPIESKRVASVRCVWESIRR | < -0.25 |
| CSEW | < -0.25 |
| KRRS | < -0.25 |
| PTVVKSTF | < -0.25 |
| SVRVWECALAKYFSGLSFIG | < -0.25 |
| CPFTELIPFRWGLCQNLTRE | < -0.25 |
| CWKTAQARLCPCPRRRGNFL | < -0.25 |
| SDPLPKAGPTVKIEVRCRLH | < -0.25 |
| AWSEFDNEGCLVSELVMR | -0.246 |

| Substance | growth estimate |
| --- | --- |
| PGDSLRK | < -0.25 |
| RGLSCRLGPQVWQVTKQ | < -0.25 |
| VMPSPDVSFLLRIRGSEGFI | < -0.25 |
| TSPAGLTMSAEGNCLFSQGG | < -0.25 |
| GRGTSRKLSGEGNSWGPH | < -0.25 |
| REGGVHHANYTEGVLLWTTN | -0.139 |
| RAVAWPAL | < -0.25 |
| IHS | < -0.25 |
| GPCVPPIMARLLLEGRGTPL | < -0.25 |
| GPHTLKLPRYFMSELRKFLP | < -0.25 |
| AQLECFAGYQPRLESNGATR | < -0.25 |
| ITVRRRATRVHDQPRVN | < -0.25 |
| PGDRPIG | < -0.25 |
| SLAINHDRAPQET | < -0.25 |
| VHPPDLRATVWAAFGVYDDC | < -0.25 |
| GKFLFGIWW | < -0.25 |
| GKLSLK | < -0.25 |
| LRTQLSRRPLVPVFLRRWFH | < -0.25 |
| CAWYNTPCS | < -0.25 |
| MLKSMPLHQLNAKQSVTSTV | < -0.25 |
| TYSDCYGCPLHVH | < -0.25 |
| GGGWISGEGYS | -0.246 |
| SDTPNSWLTTTWQTQAAARI | < -0.25 |
| VDTGEWHAFQEVSVFQPPGW | -0.153 |
| QRSFSILLCSAPSHRSNQFS | < -0.25 |

| Substance | growth estimate |
| --- | --- |
| RLCKMGPETLPYDGTYAQHV | < -0.25 |
| SCIAR | < -0.25 |
| GLYRIFYTISDALDRLSYHH | < -0.25 |
| NCPPVRMCTAVHK | < -0.25 |
| RYLRGSP | < -0.25 |
| PCIASVHSRQSSAGQRRITR | < -0.25 |
| FFRELKGRRRSWEGRTCLRR | < -0.25 |
| AFTVWRHTSLSHTRAVTNAG | < -0.25 |
| HFDRKTGPP | < -0.25 |
| GGSNYGLLHPVV | < -0.25 |
| QGEY | < -0.25 |
| LRMAGKSEFVRACWGH | < -0.25 |
| TSIVITSQALVPILPLVRTP | < -0.25 |
| VSGHSRNGNSKLNAVADMLI | < -0.25 |
| VTLI | < -0.25 |
| LVRFLDSSRYHLLIASWPGP | < -0.25 |
| DDKWTWALIIPSIPVA | < -0.25 |
| VGTRKLPDVSSSIID | < -0.25 |
| RADCEVMQVWQQGTGQSAGP | < -0.25 |
| VLNVRVYGDECQPP | < -0.25 |
| FFYLSHGIG | < -0.25 |
| NGPLIRLRRLQNGYSCLVKC | < -0.25 |
| FGRALTCLAHNLAGTRCITR | < -0.25 |
| GPAESLDQLHAMKIQRVSAS | < -0.25 |
| SGFAVNTAARLHWGQGSYI | < -0.25 |

5 entries from above in a different format:
Substance	growth estimate
NCPPVRMCTAVHK	< -0.25
RYLRGSP	< -0.25
PCIASVHSRQSSAGQRRITR	< -0.25
FFRELKGRRRSWEGRTCLRR	< -0.25
AFTVWRHTSLSHTRAVTNAG	< -0.25

More entries follow:

| Substance | growth estimate |
| --- | --- |
| QRPMLDHV | < -0.25 |
| QLRLLCQASHKRPPARSVIL | < -0.25 |
| TGTLRPRP | < -0.25 |
| VRLKATGARPNVVQVCICGG | < -0.25 |
| GFKGLVRVLQWETGLDPRRK | < -0.25 |
| LHRTFCNSTVTTSIAEAKDS | < -0.25 |
| WPEPFMKLLVVSR | < -0.25 |
| VNGLWRD | < -0.25 |
| HRRVLLGQPHLGLKWTPGRL | < -0.25 |
| SSVEHVVRTTTDSQGSPIPP | < -0.25 |
| IPKGSAPL | < -0.25 |
| PVERRWIRW | < -0.25 |
| SFCWW | < -0.25 |
| LQWRFSVIGTRCD | < -0.25 |
| GLFFQ | < -0.25 |
| SGRRALDVSSRRVD | < -0.25 |
| KQGDRYCGVWYGIWCYFFIG | < -0.25 |
| TQLQRCLATYLITGISESSL | < -0.25 |
| ERNVIVLLRVPPGGY | < -0.25 |
| GNLLSAPGMRDSTPKTSTRN | < -0.25 |
| DTQLLHQDGCPSWWDIRVWG | < -0.25 |
| TLVMQPIVGIIHL | < -0.25 |
| GLRARANKRLSRWSPLSSR | < -0.25 |
| LILSVA | < -0.25 |
| LCRQVGC | < -0.25 |

Exported field by field: part of the list above.
RLCKMGPETLPYDGTYAQHV
  growth estimate: < -0.25
NCPPVRMCTAVHK
  growth estimate: < -0.25

Looked up above.
QLRLLCQASHKRPPARSVIL – growth estimate: < -0.25
SSVEHVVRTTTDSQGSPIPP – growth estimate: < -0.25

Remaining list, next part.

| Substance | growth estimate |
| --- | --- |
| NTSELVTPGKFFVRC | < -0.25 |
| VLINDRVVYTVIPAGRSASA | < -0.25 |
| QKQAQDPRPG | < -0.25 |
| RLPFSPGVAYPVAKPDRARL | < -0.25 |
| FLVVINPSLSVMMKKPH | < -0.25 |
| TLWVPRSSKDEHWQRIQNIC | < -0.25 |
| RRERDPIIRARTISTSNLRR | < -0.25 |
| VGVRRWMRWRRQ | < -0.25 |
| GLPSKDSLRLLGITPQTFMR | < -0.25 |
| VIFCLGVLVKPNRDCLWRCN | -0.201 |
| SCKHDAVLMAHCGRHMPGER | < -0.25 |
| IWIVGQTNGAHFRADGAVYG | < -0.25 |
| GEYQR | < -0.25 |
| SIRGYLCMGDAQFGGAPPRL | < -0.25 |
| IEYLCLDAQS | < -0.25 |
| EMQGVGQARIRR | < -0.25 |
| VGTIYTTRCASLDLTRG | < -0.25 |
| LWKQGAVPAG | < -0.25 |
| SWYGTVLDQATVRWFRRHVK | < -0.25 |
| GPSNSAYPLRGC | < -0.25 |
| ESVHPFIVACANHKNQILAP | < -0.25 |
| TRVSKI | < -0.25 |
| RWGTHAEEPL | < -0.25 |
| QQACIGCIGVSDFTRH | < -0.25 |
| YVGSFCLSSLAILCFYKQSD | < -0.25 |

| Substance | growth estimate |
| --- | --- |
| KTWQNRMPYFQCNLDQFLYT | < -0.25 |
| NMEGDVGR | < -0.25 |
| NQLSLMLHNSIGRGLAVSPY | < -0.25 |
| FPGISSEASA | < -0.25 |
| ALYQRARRTDI | < -0.25 |
| AMCLIGYGFLCLT | < -0.25 |
| HRASVYLCLLRGWSSGWSTV | < -0.25 |
| GLVWNDLCKMYIVRAEIDRK | < -0.25 |
| LPIFRNSSLTTEVNNVCE | < -0.25 |
| HGDYTILPADQQRN | < -0.25 |
| GGRKRPCPTATRTTQRIRL | < -0.25 |
| PLGARTGRLLPMVLRFTIFS | < -0.25 |
| GCHRKFVATIL | < -0.25 |
| TFTVDAIHAQATDEYLRVTE | < -0.25 |
| VSIPLNSSIPS | < -0.25 |
| GNEHEGKCGSDTVDEPSTLS | < -0.25 |
| LVFLSNGPRK | < -0.25 |
| MINSTIRQGLTGRVYTQDRD | < -0.25 |
| LHDVRAWLGRVRVRCVG | < -0.25 |
| WPWRGPNVLMPRTTA | < -0.25 |
| NVIYASLFYV | < -0.25 |
| LRSIRYP | < -0.25 |
| DLLIRSIVLQKDTQADTSIR | < -0.25 |
| WVDRAM | < -0.25 |
| PQTR | < -0.25 |

| Substance | growth estimate |
| --- | --- |
| MKPRHQSAYCF | < -0.25 |
| STHSVRVRKYCPGTDGSAGK | < -0.25 |
| LCTHSGLWRNPSNYRFGQAA | < -0.25 |
| RVREAFAHSDLVRRDKVTTS | < -0.25 |
| LSIWRVPCQERNA | < -0.25 |
| QVRSDHLTFWTN | < -0.25 |
| EAGICVGNPALPQVVLWYKC | < -0.25 |
| GGCHWNPRLALKGQSTIGQK | < -0.25 |
| TSAISFLFGRATSSDAIQAA | < -0.25 |
| TRDAV | < -0.25 |
| PMNRF | < -0.25 |
| TCSGLLAARVDRVSALRSAK | < -0.25 |
| IHRVKAAWSIKTARLSRQCS | < -0.25 |
| VAAALTRGLQSNTPVQSRNY | < -0.25 |
| RTPR | < -0.25 |
| VKGRFGPQQVDLSG | < -0.25 |
| SHG | < -0.25 |
| MTLSTPESRQAPHRTVLSIS | < -0.25 |
| PVNWSAFDRRVPGRRSNRAR | < -0.25 |
| SVRNPGCSLEVSQARG | < -0.25 |
| PALRHWK | < -0.25 |
| EVKEGSVSRECRTGRVPNKK | < -0.25 |
| LNPEALRRDQMIMRASIVPQ | < -0.25 |
